Results published in PMC4672336.
No constants are given. Whether binding was seen depends on the method and setting. In cells and extracts the contact can be indirect. Some results given as binding are weak or reduced against the parent protein; the word gives no strength.

Amino acid sequences for entries named in this document (tags omitted).
UniProt P32519: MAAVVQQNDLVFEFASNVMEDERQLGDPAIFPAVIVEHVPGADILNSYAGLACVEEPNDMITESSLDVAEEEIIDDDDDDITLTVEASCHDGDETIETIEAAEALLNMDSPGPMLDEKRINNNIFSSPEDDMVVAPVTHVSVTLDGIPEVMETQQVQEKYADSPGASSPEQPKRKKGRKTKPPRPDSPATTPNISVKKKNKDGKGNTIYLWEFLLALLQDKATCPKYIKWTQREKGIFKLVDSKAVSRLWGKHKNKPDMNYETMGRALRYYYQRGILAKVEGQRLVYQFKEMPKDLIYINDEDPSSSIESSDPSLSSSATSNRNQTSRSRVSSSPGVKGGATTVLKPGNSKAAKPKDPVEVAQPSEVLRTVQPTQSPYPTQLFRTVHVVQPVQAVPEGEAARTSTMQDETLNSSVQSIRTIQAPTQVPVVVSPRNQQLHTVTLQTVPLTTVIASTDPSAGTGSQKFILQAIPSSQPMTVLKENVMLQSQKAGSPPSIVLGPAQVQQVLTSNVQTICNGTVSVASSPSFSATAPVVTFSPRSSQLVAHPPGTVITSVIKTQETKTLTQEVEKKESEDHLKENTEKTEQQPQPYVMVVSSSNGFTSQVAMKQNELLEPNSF

Target: E74-Like Factor 1 (ELF-1), endogenous (human (endogenous in HeLa S3)) (UniProt P32519)
Assay: co-IP; HeLa S3 cells mock or IFN-β treated for 5 h; co-immunoprecipitation with ELF-1 or RB1 antibodies or normal mouse serum; Western blot

- binding: binds
B1: RB1, endogenous (protein, UniProt P06400 1-928)
chain: MPPKTPRKTAATAAAAAAEPPAPPPPPPPEEDPEQDSGPEDLPLVRLEFEETEEPDFTALCQKLKIPDHVRERAWLTWEKVSSVDGVLGGYIQKKKELWGICIFIAAVDLDEMSFTFTELQKNIEISVHKFFNLLKEIDTSTKVDNAMSRLLKKYDVLFALFSKLERTCELIYLTQPSSSISTEINSALVLKVSWITFLLAKGEVLQMEDDLVISFQLMLCVLDYFIKLSPPMLLKEPYKTAVIPINGSPRTPRRGQNRSARIAKQLENDTRIIEVLCKEHECNIDEVKNVYFKNFIPFMNSLGLVTSNGLPEVENLSKRYEEIYLKNKDLDARLFLDHDKTLQTDSIDSFETQRTPRKSNLDEEVNVIPPHTPVRTVMNTIQQLMMILNSASDQPSENLISYFNNCTVNPKESILKRVKDIGYIFKEKFAKAVGQGCVEIGSQRYKLGVRLYYRVMESMLKSEEERLSIQNFSKLLNDNIFHMSLLACALEVVMATYSRSTSQNLDSGTDLSFPWILNVLNLKAFDFYKVIESFIKAEGNLTREMIKHLERCEHRIMESLAWLSDSPLFDLIKQSKDREGPTDHLESACPLNLPLQNNHTAADMYLSPVRSPKKKGSTTRVNSTANAETQATSAFQTQKPLKSTSLSLFYKKVYRLAYLRLNTLCERLLSEHPELEHIIWTLFQHTLQNEYELMRDRHLDQIMMCSMYGICKVKNIDLKFKIIVTAYKDLPHAVQETFKRVLIKEEEYDSIIVFYNSVFMQRLKTNILQYASTRPPTLSPIPHIPRSPYKFPSSPLRIPGGNIYISPLKSPYKISEGLPTPTKMTPRSRILVSIGESFGTSEKFQKINQMVCNSDRVLKRSAEGSNPPKPLKKLRFDIEGSDEADGSKHLPGESKFQQKLAEMTSTRTRMQKQKMNDSMDTSNKEEK
